Laboratory results published in PMC12036875, “Mitochondria-targeting natural product rhein conjugated with dichloroacetate as the dual inhibitor of glycolysis and oxidative phosphorylation to off energize cancer cells and induce ROS storm” (Theranostics, 2025).

System: 4T1 cells
Experiment: RNA sequencing and analysis (DEGs, GSEA)
Type: cell-based, Mouse
Details: 6.25 μM, 12 h
Procedure: To understand the effect of Rhein-DCA conjugate on the energy flow of glycolysis in cancer cells, we performed RNA sequencing analysis on 4T1 cell lines to analyze the genome. After various treatments for 12 h, all samples were clustered via principal component analysis (PCA) (Figure S12). […] Furthermore, the DEGs involved in glycolysis pathway of kyoto encyclopedia of genes and genomes (KEGG) databases were analyzed (Figure 2G). […] But as a pyruvate analogue, DCA led to the inactivation of PDK1 by binding to the pyruvate-binding pocket of PDK1 protein, together with down-regulation of PDK1 gene, thus leading more prominent restraint of glycolysis.
We next investigated whether the OXPHOS route would be further undermined by Rhein-DCA conjugate when the glycolysis was blocked. […] Thus, it was imperative to simultaneously halt glycolysis and OXPHOS to induce energy obstruction and apoptosis.
4T1 cells were seeded in 10 cm culture dishes and cultured until the confluency reached approximately 80%. The cells were treated with PBS, DCA, rhein, and Rhein-DCA conjugate (at a concentration of 6.25 μM) for 12 h. After that, the cells were collected and suspended in TRIzol Reagent for RNA sequencing. All samples were sent to Shanghai Majorbio Bio-pharm Biotechnology Co., Ltd. (Shanghai, P. R. China) for detection. Total RNA was extracted from 4T1 cells and was measured using the nanodrop-2000. The quality of RNA was evaluated by agarose gel electrophoresis and analyzed with Agilent5300. cDNA libraries were constructed according to the Illumina stranded mRNA prep, Ligation (USA) protocol. The DNA was further enriched by PCR amplification and purified by 2% Low Range Ultra Agarose. Clusters were generated by Bridge PCR on the cBot after being quantified by Qubit 4.0, and sequenced with NovaSeq X Plus platform (PE150). The differential expression analysis of various gene expressions was performed using DESeq2. The GO functional enrichment and KEGG pathway analysis were conducted on Goatools and Python scipy software.

Row | Compound | number of down-regulated genes (DEGs vs control) | number of up-regulated genes (DEGs vs control)
1 | O=C(O)C(Cl)Cl [DCA, Dichloroacetate] | 101 | 38
2 | O=C(O)c1cc(O)c2c(c1)C(=O)c1cccc(O)c1C2=O [Rhein, 4,5-dihydroxyanthraquinone-2-carboxylic acid] | 88 | 48
3 | O=C(OCCOC(=O)C(Cl)Cl)c1cc(O)c2c(c1)C(=O)c1cccc(O)c1C2=O [Rhein-DCA] | 1501 | 1563
